Construct, isoform or probe ends are uncertain for at least one entry. The comparison behind a weaker result is the experiment's own reference, which may not be listed here. Protein sequences can lack the tags named with them.

For this series, the target named is T1, POU2F1 (OCT-1) POU DNA-binding domain, wild type (Homo sapiens) (UniProt P14859).
T1 sequence (looked up, limits assumed): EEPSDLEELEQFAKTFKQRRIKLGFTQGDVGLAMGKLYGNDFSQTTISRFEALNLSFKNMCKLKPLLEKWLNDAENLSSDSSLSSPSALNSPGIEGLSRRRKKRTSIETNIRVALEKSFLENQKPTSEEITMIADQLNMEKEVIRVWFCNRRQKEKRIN
The experiment in a line: EMSA. To be noted: POU pre-incubated with PER2(683-872), up to 5-fold molar excess, before probe, dose-dependent loss of POU:DNA complex; EMSA: 20 mM HEPES pH 7.9, 2 mM MgCl2, 10% glycerol, 2 mM DTT, 36 ng poly(dI-dC), 20 min room temperature; 5% native gel, 0.5x TBE, 4 C; recombinant protein; label: 5'-32P. For orientation: Mobility shift assays separate free from complexed probe on a gel.

On to “GCTATGGCCTATGCATATGAAGCCTTTATT (double strand) [ESR1 promoter POU2F1 element probe (-56 to -42)]”, for which the binding result is listed as “binds more weakly”.

Values taken from PMC13280575, “The PER2:BRCA1:POU2F1(OCT-1) ternary complex represents a multi-component scaffold model for circadian gene regulation”.
